The values below come from publication PMC12487280.

By UniProt entry, the sequences of proteins in these tests, tags left out. Where a name states a change or a piece, a line headed by the entry shows the natural chain unless it says otherwise. Chains listed by the source or under a name are the forms on record and can include a tag or linker. Residues count along the entry.
UniProt Q14157: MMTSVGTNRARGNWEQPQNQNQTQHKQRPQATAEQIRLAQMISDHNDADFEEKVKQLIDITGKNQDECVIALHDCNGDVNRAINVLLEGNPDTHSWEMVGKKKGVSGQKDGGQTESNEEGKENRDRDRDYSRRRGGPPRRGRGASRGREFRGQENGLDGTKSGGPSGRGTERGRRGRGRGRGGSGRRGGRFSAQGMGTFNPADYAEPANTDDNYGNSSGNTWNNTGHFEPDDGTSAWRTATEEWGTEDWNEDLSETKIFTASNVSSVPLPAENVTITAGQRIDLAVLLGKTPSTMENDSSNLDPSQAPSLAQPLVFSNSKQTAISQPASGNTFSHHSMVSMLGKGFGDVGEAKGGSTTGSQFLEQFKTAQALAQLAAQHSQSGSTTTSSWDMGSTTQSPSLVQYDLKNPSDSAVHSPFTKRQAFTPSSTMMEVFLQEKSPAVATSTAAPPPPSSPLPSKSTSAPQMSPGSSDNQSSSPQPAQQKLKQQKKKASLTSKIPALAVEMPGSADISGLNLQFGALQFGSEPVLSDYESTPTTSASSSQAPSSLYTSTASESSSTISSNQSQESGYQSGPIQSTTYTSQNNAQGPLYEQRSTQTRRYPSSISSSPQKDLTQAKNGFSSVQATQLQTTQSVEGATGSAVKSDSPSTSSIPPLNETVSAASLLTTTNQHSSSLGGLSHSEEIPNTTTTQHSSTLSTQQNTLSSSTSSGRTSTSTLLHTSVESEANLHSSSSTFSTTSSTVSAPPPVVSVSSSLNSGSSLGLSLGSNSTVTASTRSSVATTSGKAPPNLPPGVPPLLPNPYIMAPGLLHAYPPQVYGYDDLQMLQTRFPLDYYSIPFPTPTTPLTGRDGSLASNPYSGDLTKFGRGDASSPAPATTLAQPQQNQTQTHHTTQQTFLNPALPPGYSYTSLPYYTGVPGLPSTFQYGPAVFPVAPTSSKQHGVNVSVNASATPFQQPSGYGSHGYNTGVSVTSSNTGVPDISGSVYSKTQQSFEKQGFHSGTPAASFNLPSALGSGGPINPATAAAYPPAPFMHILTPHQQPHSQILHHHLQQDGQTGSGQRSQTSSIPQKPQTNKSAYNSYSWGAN
Flag-tagged UBAP2L N-terminal sequence (amino acids 1-100): residues 1-100 of Q14157
UniProt O94972: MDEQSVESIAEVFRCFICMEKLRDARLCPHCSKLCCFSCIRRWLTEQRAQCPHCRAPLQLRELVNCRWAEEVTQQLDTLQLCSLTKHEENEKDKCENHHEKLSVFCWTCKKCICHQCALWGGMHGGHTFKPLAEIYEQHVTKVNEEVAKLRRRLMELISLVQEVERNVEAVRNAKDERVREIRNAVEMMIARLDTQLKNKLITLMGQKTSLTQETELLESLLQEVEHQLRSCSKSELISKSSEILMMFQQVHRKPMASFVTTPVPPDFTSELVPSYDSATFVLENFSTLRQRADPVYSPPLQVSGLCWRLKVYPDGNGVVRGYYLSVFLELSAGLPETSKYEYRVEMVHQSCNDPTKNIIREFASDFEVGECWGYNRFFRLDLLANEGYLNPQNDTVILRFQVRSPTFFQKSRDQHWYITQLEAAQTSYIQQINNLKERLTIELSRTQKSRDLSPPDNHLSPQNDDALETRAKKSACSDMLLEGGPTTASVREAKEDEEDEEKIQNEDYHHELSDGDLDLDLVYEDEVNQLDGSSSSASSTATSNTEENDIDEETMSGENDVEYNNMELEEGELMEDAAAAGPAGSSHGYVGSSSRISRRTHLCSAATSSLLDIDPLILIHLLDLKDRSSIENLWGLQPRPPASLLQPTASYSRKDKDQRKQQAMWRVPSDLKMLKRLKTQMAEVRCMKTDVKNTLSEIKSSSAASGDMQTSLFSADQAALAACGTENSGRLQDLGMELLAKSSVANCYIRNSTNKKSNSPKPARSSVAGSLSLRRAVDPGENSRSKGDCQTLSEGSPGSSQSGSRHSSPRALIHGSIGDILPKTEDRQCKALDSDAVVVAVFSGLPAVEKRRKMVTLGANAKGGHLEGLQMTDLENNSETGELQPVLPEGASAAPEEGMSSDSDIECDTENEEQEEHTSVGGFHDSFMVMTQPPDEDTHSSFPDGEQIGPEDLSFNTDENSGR

Where two headings read alike, the source gives them in different places. These are yes or no findings as the source states them, for the method shown. Binding seen in cells or lysates may run through a third protein. Some entries that bind do so weakly or less than the wild type. For some assays here: Sequences can lack the tags named with a protein.

Experiment [1] concerns the target T1, HA-tagged FL OGT (O-GlcNAc transferase), expressed in HEK293T cells (UniProt O15294).
T1 sequence: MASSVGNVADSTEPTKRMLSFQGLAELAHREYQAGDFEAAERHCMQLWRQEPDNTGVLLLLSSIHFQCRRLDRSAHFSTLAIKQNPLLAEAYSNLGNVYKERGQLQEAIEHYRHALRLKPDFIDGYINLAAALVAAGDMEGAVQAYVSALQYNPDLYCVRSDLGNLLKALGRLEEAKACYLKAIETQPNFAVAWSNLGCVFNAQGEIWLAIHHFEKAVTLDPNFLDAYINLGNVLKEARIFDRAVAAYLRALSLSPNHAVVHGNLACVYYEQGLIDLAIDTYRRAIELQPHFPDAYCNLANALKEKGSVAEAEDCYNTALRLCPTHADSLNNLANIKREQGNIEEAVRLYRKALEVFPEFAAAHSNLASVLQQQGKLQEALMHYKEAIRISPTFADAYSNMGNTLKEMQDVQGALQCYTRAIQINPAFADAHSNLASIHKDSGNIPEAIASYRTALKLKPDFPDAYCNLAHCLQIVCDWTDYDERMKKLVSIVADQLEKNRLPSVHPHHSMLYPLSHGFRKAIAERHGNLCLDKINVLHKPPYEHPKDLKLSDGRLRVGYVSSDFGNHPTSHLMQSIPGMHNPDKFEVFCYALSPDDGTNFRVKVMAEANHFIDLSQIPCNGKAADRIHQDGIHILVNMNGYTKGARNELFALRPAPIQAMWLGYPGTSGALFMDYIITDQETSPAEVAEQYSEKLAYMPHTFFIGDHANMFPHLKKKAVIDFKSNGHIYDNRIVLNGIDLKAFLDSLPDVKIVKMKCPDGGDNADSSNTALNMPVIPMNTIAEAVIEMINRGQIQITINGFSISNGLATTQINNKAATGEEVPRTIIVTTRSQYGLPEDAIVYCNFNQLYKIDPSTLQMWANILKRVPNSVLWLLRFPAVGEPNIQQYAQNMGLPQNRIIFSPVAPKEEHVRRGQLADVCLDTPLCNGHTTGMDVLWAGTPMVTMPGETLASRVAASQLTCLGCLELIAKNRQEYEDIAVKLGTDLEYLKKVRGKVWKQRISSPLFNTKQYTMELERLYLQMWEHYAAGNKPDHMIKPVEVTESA
Put plainly: co-IP; HEK293T cells co-transfected with Flag-UBAP2L and HA-OGT (full length or deletion mutants); IP with anti-HA or anti-Flag, immunoblot; RIPA buffer, 4 °C. Background: Immunoblotting shows a protein as a band on a membrane.

For experiment [2], the target named is T2, HA-tagged OGT C-terminal sequence (amino acids 801-1046) (UniProt O15294).
T2 sequence: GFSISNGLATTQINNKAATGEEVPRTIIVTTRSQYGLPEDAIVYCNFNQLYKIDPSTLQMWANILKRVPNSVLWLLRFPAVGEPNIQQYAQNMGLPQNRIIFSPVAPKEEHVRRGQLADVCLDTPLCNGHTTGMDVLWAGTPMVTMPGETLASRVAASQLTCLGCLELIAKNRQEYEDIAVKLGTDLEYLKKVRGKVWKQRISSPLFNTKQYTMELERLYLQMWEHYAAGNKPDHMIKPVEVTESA
Described as above.

Experiment [3] has as its target UBAP2L (ubiquitin-associated protein 2-like), endogenous in ccRCC cells (human (endogenous in 786-O and Caki-1)) (UniProt Q14157). As to the kind of experiment: co-IP; endogenous proteins in lysates of ccRCC cells (786-O, Caki-1); IP with specific antibodies or IgG control, immunoblot; for TRIM37-UBAP2L also cells with shCtrl, shOGT or shOGA.
The target in experiment [4] is T3, OGT (O-GlcNAc transferase), endogenous in ccRCC cells (human (endogenous in 786-O and Caki-1)) (UniProt O15294).
T3 sequence: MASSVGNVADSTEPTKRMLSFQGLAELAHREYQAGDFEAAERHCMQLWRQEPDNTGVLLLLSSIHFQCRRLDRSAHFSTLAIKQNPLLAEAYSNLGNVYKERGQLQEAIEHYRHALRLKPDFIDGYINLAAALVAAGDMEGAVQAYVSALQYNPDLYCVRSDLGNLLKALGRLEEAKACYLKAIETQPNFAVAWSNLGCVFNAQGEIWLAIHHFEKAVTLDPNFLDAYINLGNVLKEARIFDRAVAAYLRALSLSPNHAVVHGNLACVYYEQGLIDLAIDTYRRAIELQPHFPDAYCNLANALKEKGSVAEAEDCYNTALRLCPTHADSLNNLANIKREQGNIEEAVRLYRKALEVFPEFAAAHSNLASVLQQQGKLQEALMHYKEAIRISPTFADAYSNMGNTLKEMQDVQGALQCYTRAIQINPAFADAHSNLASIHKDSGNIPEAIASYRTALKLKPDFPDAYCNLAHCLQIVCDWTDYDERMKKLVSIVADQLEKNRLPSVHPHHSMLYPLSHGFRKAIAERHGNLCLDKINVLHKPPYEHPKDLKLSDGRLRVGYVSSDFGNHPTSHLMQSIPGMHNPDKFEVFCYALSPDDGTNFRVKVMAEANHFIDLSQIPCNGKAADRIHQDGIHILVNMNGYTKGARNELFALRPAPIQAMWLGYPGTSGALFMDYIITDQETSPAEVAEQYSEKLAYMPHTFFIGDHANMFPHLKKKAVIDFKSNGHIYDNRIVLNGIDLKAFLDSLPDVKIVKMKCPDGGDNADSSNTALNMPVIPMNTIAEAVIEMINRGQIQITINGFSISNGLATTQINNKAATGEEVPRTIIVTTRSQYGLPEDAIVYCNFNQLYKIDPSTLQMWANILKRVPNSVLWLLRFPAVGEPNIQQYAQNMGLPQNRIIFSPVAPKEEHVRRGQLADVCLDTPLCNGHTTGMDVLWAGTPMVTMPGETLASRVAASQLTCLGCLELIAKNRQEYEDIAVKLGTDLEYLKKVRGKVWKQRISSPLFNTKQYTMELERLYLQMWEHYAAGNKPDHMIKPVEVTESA
The experiment is described as above.

The target in a further experiment is T4, GST-OGT recombinant (UniProt O15294).
T4 sequence: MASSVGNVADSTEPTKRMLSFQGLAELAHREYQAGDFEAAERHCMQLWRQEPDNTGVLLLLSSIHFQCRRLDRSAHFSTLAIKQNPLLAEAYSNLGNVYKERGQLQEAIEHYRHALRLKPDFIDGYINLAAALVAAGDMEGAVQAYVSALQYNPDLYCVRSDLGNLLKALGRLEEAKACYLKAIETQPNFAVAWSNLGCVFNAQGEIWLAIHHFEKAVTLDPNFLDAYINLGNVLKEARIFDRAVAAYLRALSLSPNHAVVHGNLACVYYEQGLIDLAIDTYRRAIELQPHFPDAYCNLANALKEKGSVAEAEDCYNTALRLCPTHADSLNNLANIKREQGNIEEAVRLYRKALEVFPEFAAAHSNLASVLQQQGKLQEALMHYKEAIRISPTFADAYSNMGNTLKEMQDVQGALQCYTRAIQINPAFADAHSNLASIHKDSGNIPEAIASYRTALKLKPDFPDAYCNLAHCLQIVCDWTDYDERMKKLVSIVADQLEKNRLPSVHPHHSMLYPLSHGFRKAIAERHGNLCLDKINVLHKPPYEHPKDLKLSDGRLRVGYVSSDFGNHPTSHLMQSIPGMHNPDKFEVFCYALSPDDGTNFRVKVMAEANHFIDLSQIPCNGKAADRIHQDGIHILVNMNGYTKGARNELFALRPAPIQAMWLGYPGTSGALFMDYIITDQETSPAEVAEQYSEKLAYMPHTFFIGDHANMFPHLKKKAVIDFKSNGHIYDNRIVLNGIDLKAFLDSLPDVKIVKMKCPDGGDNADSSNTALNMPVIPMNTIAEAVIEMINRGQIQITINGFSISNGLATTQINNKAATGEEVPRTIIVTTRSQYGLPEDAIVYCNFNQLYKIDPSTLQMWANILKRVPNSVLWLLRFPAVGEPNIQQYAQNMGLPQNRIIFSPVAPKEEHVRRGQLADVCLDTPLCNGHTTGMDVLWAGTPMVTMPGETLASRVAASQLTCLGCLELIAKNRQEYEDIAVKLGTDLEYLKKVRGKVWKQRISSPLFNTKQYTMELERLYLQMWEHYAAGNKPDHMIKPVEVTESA
Put plainly: pull-down; GST or GST-OGT from E. coli BL21 immobilized onto Anti-GST Magnetic Beads, incubated with cell lysates overnight at 4 °C; immunoblot; only the target purified.

Experiment [5] addresses Flag-tagged UBAP2L N-terminal sequence (amino acids 1-100) (UniProt Q14157). Put plainly: co-IP; HEK293T cells co-transfected with Flag-UBAP2L and HA-OGT (full length or deletion mutants); IP with anti-HA or anti-Flag, immunoblot; RIPA buffer, 4 °C.
Experiment [6] addresses Flag-tagged FL UBAP2L, expressed in HEK293T cells (UniProt Q14157). The experiment is described as above.
The target of experiment [7] is UBAP2L (ubiquitin-associated protein 2-like), endogenous in ccRCC cells (human (endogenous in 786-O and Caki-1)) (UniProt Q14157). As to the kind of experiment: co-IP; endogenous proteins in lysates of ccRCC cells (786-O, Caki-1); IP with specific antibodies or IgG control, immunoblot; for TRIM37-UBAP2L also cells with shCtrl, shOGT or shOGA. This is another data set of the same source.

In the case of “Flag-tagged FL UBAP2L, expressed in HEK293T cells (from UniProt Q14157 1-1087)”, the binding result in experiment [1] and in experiment [2] was “binds” each time.

As for “TRIM37, endogenous in ccRCC cells (from UniProt O94972 1-964) (enzyme)”, in experiment [3], the binding entry is given as “binds”. “UBAP2L (ubiquitin-associated protein 2-like), endogenous in ccRCC cells (from UniProt Q14157 1-1087)”: in experiment [4], the binding entry is reported as “binds”.

For the molecule “UBAP2L in the cell lysate of the GST pull-down (from UniProt Q14157 1-1087)”, the binding entry with GST-OGT recombinant is reported as “binds”.

B1: HA-tagged FL OGT (O-GlcNAc transferase), expressed in HEK293T cells (enzyme, UniProt O15294 1-1046)
chain: MASSVGNVADSTEPTKRMLSFQGLAELAHREYQAGDFEAAERHCMQLWRQEPDNTGVLLLLSSIHFQCRRLDRSAHFSTLAIKQNPLLAEAYSNLGNVYKERGQLQEAIEHYRHALRLKPDFIDGYINLAAALVAAGDMEGAVQAYVSALQYNPDLYCVRSDLGNLLKALGRLEEAKACYLKAIETQPNFAVAWSNLGCVFNAQGEIWLAIHHFEKAVTLDPNFLDAYINLGNVLKEARIFDRAVAAYLRALSLSPNHAVVHGNLACVYYEQGLIDLAIDTYRRAIELQPHFPDAYCNLANALKEKGSVAEAEDCYNTALRLCPTHADSLNNLANIKREQGNIEEAVRLYRKALEVFPEFAAAHSNLASVLQQQGKLQEALMHYKEAIRISPTFADAYSNMGNTLKEMQDVQGALQCYTRAIQINPAFADAHSNLASIHKDSGNIPEAIASYRTALKLKPDFPDAYCNLAHCLQIVCDWTDYDERMKKLVSIVADQLEKNRLPSVHPHHSMLYPLSHGFRKAIAERHGNLCLDKINVLHKPPYEHPKDLKLSDGRLRVGYVSSDFGNHPTSHLMQSIPGMHNPDKFEVFCYALSPDDGTNFRVKVMAEANHFIDLSQIPCNGKAADRIHQDGIHILVNMNGYTKGARNELFALRPAPIQAMWLGYPGTSGALFMDYIITDQETSPAEVAEQYSEKLAYMPHTFFIGDHANMFPHLKKKAVIDFKSNGHIYDNRIVLNGIDLKAFLDSLPDVKIVKMKCPDGGDNADSSNTALNMPVIPMNTIAEAVIEMINRGQIQITINGFSISNGLATTQINNKAATGEEVPRTIIVTTRSQYGLPEDAIVYCNFNQLYKIDPSTLQMWANILKRVPNSVLWLLRFPAVGEPNIQQYAQNMGLPQNRIIFSPVAPKEEHVRRGQLADVCLDTPLCNGHTTGMDVLWAGTPMVTMPGETLASRVAASQLTCLGCLELIAKNRQEYEDIAVKLGTDLEYLKKVRGKVWKQRISSPLFNTKQYTMELERLYLQMWEHYAAGNKPDHMIKPVEVTESA
B1: the binding result in experiment [5] and in experiment [6] was “binds” in each case.

B2: OGT (O-GlcNAc transferase), endogenous in ccRCC cells (enzyme, UniProt O15294 1-1046)
chain: MASSVGNVADSTEPTKRMLSFQGLAELAHREYQAGDFEAAERHCMQLWRQEPDNTGVLLLLSSIHFQCRRLDRSAHFSTLAIKQNPLLAEAYSNLGNVYKERGQLQEAIEHYRHALRLKPDFIDGYINLAAALVAAGDMEGAVQAYVSALQYNPDLYCVRSDLGNLLKALGRLEEAKACYLKAIETQPNFAVAWSNLGCVFNAQGEIWLAIHHFEKAVTLDPNFLDAYINLGNVLKEARIFDRAVAAYLRALSLSPNHAVVHGNLACVYYEQGLIDLAIDTYRRAIELQPHFPDAYCNLANALKEKGSVAEAEDCYNTALRLCPTHADSLNNLANIKREQGNIEEAVRLYRKALEVFPEFAAAHSNLASVLQQQGKLQEALMHYKEAIRISPTFADAYSNMGNTLKEMQDVQGALQCYTRAIQINPAFADAHSNLASIHKDSGNIPEAIASYRTALKLKPDFPDAYCNLAHCLQIVCDWTDYDERMKKLVSIVADQLEKNRLPSVHPHHSMLYPLSHGFRKAIAERHGNLCLDKINVLHKPPYEHPKDLKLSDGRLRVGYVSSDFGNHPTSHLMQSIPGMHNPDKFEVFCYALSPDDGTNFRVKVMAEANHFIDLSQIPCNGKAADRIHQDGIHILVNMNGYTKGARNELFALRPAPIQAMWLGYPGTSGALFMDYIITDQETSPAEVAEQYSEKLAYMPHTFFIGDHANMFPHLKKKAVIDFKSNGHIYDNRIVLNGIDLKAFLDSLPDVKIVKMKCPDGGDNADSSNTALNMPVIPMNTIAEAVIEMINRGQIQITINGFSISNGLATTQINNKAATGEEVPRTIIVTTRSQYGLPEDAIVYCNFNQLYKIDPSTLQMWANILKRVPNSVLWLLRFPAVGEPNIQQYAQNMGLPQNRIIFSPVAPKEEHVRRGQLADVCLDTPLCNGHTTGMDVLWAGTPMVTMPGETLASRVAASQLTCLGCLELIAKNRQEYEDIAVKLGTDLEYLKKVRGKVWKQRISSPLFNTKQYTMELERLYLQMWEHYAAGNKPDHMIKPVEVTESA
For the molecule B2, in experiment [7], the binding entry is given as “binds”.
